Among the data in the supplement of paper PMC12819154, “High-throughput peptide-centric local stability assay extends protein–ligand identification to membrane proteins, tissues and bacteria” (Nature Structural & Molecular Biology, 2025) are log2 fold change values, retold here.

Sequences of proteins named here, by UniProt entry; tags and fusion partners are left off. A change or cut given only in a name is not applied to a line headed by its entry.
UniProt P0ACW6: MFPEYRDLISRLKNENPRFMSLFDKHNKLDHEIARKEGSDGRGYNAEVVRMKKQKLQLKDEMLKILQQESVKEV
UniProt P0AAT4: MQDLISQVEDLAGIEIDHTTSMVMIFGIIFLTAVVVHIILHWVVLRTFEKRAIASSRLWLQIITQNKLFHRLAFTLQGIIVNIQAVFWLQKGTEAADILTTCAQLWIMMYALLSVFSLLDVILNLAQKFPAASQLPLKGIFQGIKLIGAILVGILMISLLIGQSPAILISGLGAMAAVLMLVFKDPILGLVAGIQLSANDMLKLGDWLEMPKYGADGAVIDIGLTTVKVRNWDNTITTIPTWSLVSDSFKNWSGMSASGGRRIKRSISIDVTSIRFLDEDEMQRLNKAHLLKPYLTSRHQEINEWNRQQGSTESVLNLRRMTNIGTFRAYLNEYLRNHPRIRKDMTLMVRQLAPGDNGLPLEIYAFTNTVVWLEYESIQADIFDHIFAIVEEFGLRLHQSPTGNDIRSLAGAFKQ
UniProt P0AA39: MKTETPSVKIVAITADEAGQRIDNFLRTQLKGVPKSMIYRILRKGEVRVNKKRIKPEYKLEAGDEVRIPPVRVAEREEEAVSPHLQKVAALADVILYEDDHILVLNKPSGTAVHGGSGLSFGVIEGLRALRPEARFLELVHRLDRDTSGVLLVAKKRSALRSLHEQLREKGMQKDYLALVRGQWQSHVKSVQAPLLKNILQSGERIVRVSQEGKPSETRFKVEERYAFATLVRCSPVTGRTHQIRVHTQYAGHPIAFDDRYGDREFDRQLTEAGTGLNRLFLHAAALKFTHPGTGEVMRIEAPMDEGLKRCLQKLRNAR
UniProt P0ACP7: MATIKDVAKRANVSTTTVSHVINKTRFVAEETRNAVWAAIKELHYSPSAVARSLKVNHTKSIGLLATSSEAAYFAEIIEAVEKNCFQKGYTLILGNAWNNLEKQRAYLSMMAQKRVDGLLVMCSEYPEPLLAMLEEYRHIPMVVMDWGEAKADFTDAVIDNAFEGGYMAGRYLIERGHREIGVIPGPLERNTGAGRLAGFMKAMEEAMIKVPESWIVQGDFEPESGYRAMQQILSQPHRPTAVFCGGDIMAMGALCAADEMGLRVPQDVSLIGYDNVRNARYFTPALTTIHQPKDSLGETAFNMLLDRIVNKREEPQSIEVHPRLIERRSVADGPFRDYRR
UniProt P0A9W9: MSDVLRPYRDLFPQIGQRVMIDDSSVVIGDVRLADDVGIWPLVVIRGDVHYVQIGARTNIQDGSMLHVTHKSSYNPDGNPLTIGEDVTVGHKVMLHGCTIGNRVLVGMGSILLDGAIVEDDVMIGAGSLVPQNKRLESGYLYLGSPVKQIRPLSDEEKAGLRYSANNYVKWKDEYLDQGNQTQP
UniProt P0ABU5: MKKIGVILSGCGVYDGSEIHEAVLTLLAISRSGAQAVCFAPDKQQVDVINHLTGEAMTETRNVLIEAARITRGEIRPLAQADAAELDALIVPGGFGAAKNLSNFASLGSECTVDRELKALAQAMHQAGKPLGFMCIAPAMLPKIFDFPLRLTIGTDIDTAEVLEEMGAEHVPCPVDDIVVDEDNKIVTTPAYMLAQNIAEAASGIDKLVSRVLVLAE
UniProt P0ABL3: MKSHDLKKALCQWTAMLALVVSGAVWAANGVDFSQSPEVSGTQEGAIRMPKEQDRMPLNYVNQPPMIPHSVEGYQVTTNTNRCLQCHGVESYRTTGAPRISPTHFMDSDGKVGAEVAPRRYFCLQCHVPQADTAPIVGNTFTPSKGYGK
UniProt P0AAB8: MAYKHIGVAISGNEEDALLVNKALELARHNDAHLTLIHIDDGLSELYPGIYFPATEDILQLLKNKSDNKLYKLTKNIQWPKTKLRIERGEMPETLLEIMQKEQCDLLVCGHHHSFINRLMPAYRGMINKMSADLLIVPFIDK
UniProt P0AAV6: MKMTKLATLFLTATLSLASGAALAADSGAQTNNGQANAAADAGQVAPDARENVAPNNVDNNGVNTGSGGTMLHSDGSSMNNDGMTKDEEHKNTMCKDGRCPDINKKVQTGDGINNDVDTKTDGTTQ
UniProt P0A9U6: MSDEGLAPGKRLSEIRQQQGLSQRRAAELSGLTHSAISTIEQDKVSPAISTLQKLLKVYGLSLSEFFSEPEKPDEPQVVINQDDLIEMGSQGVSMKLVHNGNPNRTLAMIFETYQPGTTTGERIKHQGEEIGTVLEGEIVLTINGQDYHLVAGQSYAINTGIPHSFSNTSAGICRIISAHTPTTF
UniProt P0A9V8: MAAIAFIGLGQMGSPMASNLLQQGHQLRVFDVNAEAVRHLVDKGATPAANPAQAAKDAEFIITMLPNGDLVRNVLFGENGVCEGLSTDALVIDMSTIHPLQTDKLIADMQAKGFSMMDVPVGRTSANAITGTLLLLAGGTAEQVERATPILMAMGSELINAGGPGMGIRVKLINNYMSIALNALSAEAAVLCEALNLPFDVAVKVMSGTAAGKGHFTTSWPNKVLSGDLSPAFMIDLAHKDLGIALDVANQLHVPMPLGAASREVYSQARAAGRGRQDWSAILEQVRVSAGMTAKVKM

The other results are listed elsewhere or left out. Small differences around the control level are noise.

Compound in the experiment: CC1(C)S[C@@H]2[C@H](NC(=O)[C@H](N)c3ccccc3)C(=O)N2[C@H]1C(=O)O [ampicillin]
The experiment is described as follows: log2 fold change of tryptic peptide abundance, ligand vs vehicle (limited proteolysis) (log2 ratio); higher = more trypsin-susceptible (destabilized). The following applies: ligand concentration: 10 uM; sample: E. coli crude lysate.
For the target “UniProt P0ACW6 (peptide sequence: FMSLFDK, peptide start residue: 19)”, the log2 fold change is -0.155.

Regarding “UniProt P0AAT4 (peptide sequence: HQEINEWNR, peptide start residue: 299)”, the log2 fold change is -0.144.

Regarding “UniProt P0AA39 (peptide sequence: DTSGVLLVAK, peptide start residue: 146)”, the log2 fold change was 0.464.

“UniProt P0ACD8 (peptide sequence: AHEAQWAAGK, peptide start residue: 456)”: the log2 fold change was determined as 0.308. Take “UniProt P0ACP7 (peptide sequence: NAVWAAIK, peptide start residue: 34)”: the log2 fold change was -0.132. For “UniProt P0A9W9 (peptide sequence: TNIQDGSMLHVTHK, peptide start residue: 58)”, the log2 fold change was 0.229. In the case of “UniProt P0ABU5 (peptide sequence: IFDFPLR, peptide start residue: 144)”, the log2 fold change is -0.188. On to “UniProt P0ABL3 (peptide sequence: ISPTHFMDSDGK, peptide start residue: 100)”, for which the log2 fold change was found to be 0.0796. Turning to “UniProt P0AAB8 (peptide sequence: NIQWPKTK, peptide start residue: 76)”, the log2 fold change was -0.184. With “UniProt P0AAV6 (peptide sequence: DGRCPDINK, peptide start residue: 97)”, the log2 fold change stood at 0.589. Regarding “UniProt P0A9U6 (peptide sequence: QQQGLSQR, peptide start residue: 17)”, the log2 fold change is -0.103. “UniProt P0A9V8 (peptide sequence: GRQDWSAILEQVR, peptide start residue: 275)”: the log2 fold change worked out at 0.332.
